Article PMC7830388
For at least one entry, the source does not settle the construct or the ends of the probe. The comparison behind a weaker result is the experiment's own reference, which may not be listed here. For some of these results: Where a protein sequence is shown, tags need not be part of it.

Legend:
[1] = target: T1, CopR (Pyrococcus furiosus) (UniProt Q8U2U0); assay: EMSA; details: EMSA: 20 nM DNA, 40 mM HEPES pH 7.4, 80 mM (NH4)2SO4, 670 uM DTT, 20 ug/ml BSA, 6.7% glycerol, 50 ng HindIII-digested lambda DNA, 5 min 70 C, recombinant protein, label: 5'-Cy3 on S1 strand, probe letters rebuilt from the primers and the genome
T1 sequence (looked up, limits assumed): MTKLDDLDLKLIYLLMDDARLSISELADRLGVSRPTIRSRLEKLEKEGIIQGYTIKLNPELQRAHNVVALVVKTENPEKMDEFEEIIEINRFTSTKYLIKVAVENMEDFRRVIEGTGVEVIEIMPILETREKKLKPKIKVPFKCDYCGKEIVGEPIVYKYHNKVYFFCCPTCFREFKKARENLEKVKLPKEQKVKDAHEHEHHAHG

[2] = target: T2, CopRΔHIS (Pyrococcus furiosus) (UniProt Q8U2U0); assay: EMSA; details: CuSO4 50-1600 uM (200 nM protein), release slightly reduced vs full-length; EMSA: 20 nM DNA, 40 mM HEPES pH 7.4, 80 mM (NH4)2SO4, 670 uM DTT, 20 ug/ml BSA, 6.7% glycerol, 50 ng HindIII-digested lambda DNA, 5 min 70 C; recombinant protein; label: 5'-Cy3 on S1 strand; probe letters rebuilt from the primers and the genome
T2 sequence (looked up, limits assumed): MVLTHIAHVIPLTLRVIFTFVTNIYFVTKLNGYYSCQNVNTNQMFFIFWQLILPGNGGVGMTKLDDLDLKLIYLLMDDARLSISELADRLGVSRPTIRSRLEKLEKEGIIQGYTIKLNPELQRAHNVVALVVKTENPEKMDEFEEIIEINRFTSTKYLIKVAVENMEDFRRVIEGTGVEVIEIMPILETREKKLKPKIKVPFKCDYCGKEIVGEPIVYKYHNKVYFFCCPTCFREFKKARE

[3] = test system: TBP + TFB; assay: DNase I footprinting; details: with 2.8 uM CopR: TBP/TFB lost at copR promoter, still present at copA promoter; DNase I: 4.4 nM DNA, 40 mM Na-HEPES pH 7.5, 125 mM NaCl, 0.1 mM EDTA, 0.1 mg/ml BSA, 1 mM DTT, 0.5 mM MgCl2, 20 min 70 C; recombinant protein; label: 5'-HEX on S1 or S2 strand (separate reactions); probe letters rebuilt from the primers and the genome

Measured: binding result

GAGTGATCTTCACTTTCGTCACCAATATTTACTTTGTGACGAAACTTAATGGGTATTATTCATGCCAAAATGTAAACACTAACCAAATGTTTTTTATATTTTGGCAACTAATACTCCCAGGGAATGGGGGTGTTGGAATGACCAAGTTAGATG (double strand) [copR/copA intergenic promoter region (EMSA)]
binds more weakly: [1]; AgNO3 12.5-50 uM (200 nM protein), strong effect | [1]; CoCl2 12.5-50 uM (200 nM protein), smaller effect than Cu, Ag | [1]; CuSO4 12.5-50 uM (200 nM protein), release from 12.5 uM | [1]; CuSO4 50-1600 uM (200 nM protein) | [1]; FeCl3 12.5-50 uM (200 nM protein), smaller effect than Cu, Ag | [2]

GAGTGATCTTCACTTTCGTCACCAATATTTACTTTGTGACGAAACTTAATGGGTATTATTCATGCCAAAATGTAAACACTAACCAAATGTTTTTTATATTTTGGCAACTAATACTCCCAGGGAATGGGGGTGTTGGAATGACCAAGTTAGATG (double strand) [copR/copA promoter region (DNase I footprint)]
binds more weakly: [3]
